## Percent effect of library compounds

The values are deposited in ChEMBL (CHEMBL3988442, “University of Dundee, Small-Polar-MMV Screening Library” (2021)).

Mtb cholesterol medium: 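Whole-cell growth test on Mycobacterium tuberculosis, read after 4 days in a medium based on cholesterol and the lipid DPPC; the read-out is not stated. Concentration: 50 µM. Direction is inferred from retests: higher values go with more growth inhibition. About 69,000 compounds were tested under these conditions; 0.54% (about 370) showed 50% or more at least once.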
Mtb glucose medium: 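Growth of Mycobacterium tuberculosis over 3 days (7H9 medium with glucose and tyloxapol); the read-out is not stated. Compounds at 50 µM. Direction is inferred from retests: higher values go with more growth inhibition. About 69,000 compounds were tested under these conditions; 1.1% (about 760) showed 50% or more at least once.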

Values are the deposited “Percent Effect”, in %.
The record does not define 0% and 100%; most values in the screen are far below 50% and negative numbers occur (in some assays of this library far below -100).
This is an unselected part of the compounds tested.
Two or more numbers in one place are separate tests of the same structure; such repeats can differ widely.

| SMILES | Mtb cholesterol medium | Mtb glucose medium |
|---|---|---|
| `[H][C@@]12CN(CC3CCC3)C[C@]1([H])OCCN2c1ncc(F)cn1` | -6.232% | 11.57% |
| `Cc1nc(CNC(=O)c2ccc3c(c2)nc(N2CCOCC2)n3C)cs1` | -5.239% | 0.5746% |
| `O=C1CNc2ncnc(Nc3cccc(Cn4cccn4)c3)c2N1` | -10.25% | -6.182% |
| `CCc1nc(CN(C)C(=O)NCc2cccc(NC(C)=O)c2)cs1` | -14.92% | -6.602% & 3.663% |
| `CC(NC(=O)NC1CCN(Cc2ccccn2)CC1)c1ccco1` (configuration not stated) | -2.444% | 2.708% & 11.63% |
| `CC(C)(C)NC(=O)Cn1c(=O)n(Cc2ccco2)c2ncccc21` | 2.499% | 15.43% |
| `O=C(c1cccc(CNS(=O)(=O)c2ccccc2F)c1)N1CCCC1` | -7.974% | -1.676% |
| `COc1cccc(CC(=O)NCc2cnc(C)nc2C2CCCN2C)c1` (configuration not stated) | 21.26% | -9.438% |
| `O=C(N1CCOCC1)N1CCC(Nc2ccncn2)CC1` | -11.33% | -23.67% |
| `CCC(CC)c1cc(CNC(=O)N2CCC(CO)CC2)on1` | 3.185% | 1.275% & 7.637% |
| `CCC[C@H]1CN(Cc2cc(C#N)n(C)c2C)C[C@@H]1N(C)C` | -4.037% | -8.082% |
| `C=C(C)CN1CCC(NC(=O)NCCc2ccccc2OC)CC1` | 14.53% | 25.23% & -5.43% |
| `NC(=O)C1(CNC(=O)CCc2ccc(Cl)s2)CCOCC1` | 2.327% | 9.535% |
| `[H][C@@]12CCN(c3cc(OC)ncn3)CC[C@@]1([H])N(CC1CC1)CCO2` | -28.16% | -28.19% |
| `COc1ccc(COCC(O)CNC(=O)Cc2ccc(C)cc2)cc1` (configuration not stated) | 4.507% | 7.001% |
| `CCc1ccc(C2CC(=O)Nc3cc(NS(C)(=O)=O)ccc32)o1` (configuration not stated) | -4.663% & -2.542% | 9.118% |
| `O=C(O)C(F)(F)F.O=C(O)C(F)(F)F.[H][C@@]12CN(Cc3cccc(C)n3)C[C@]1([H])OCCN2CCOC` | -5.636% | 26.18% |
| `CCCC(=O)N1CCCC1(C)c1nc(C)no1` (configuration not stated) | 11.43% & 5.877% | 1.744% |
| `Cc1nn2cccnc2c1C(=O)N1CCCC(Nc2ccccc2)C1` (configuration not stated) | 12.68% | 0.7492% |
| `[H][C@@]12COC[C@@H](Cc3nc(C)no3)[C@]1([H])CN(S(=O)(=O)C1CC1)C2` | 10.2% | 2.172% & -1.261% |
| `O=C(O)C(F)(F)F.[H][C@]12CN(Cc3nccs3)C[C@@]1([H])OCCN(C(=O)c1cccn1C)C2` | -10.58% | -31.99% |
| `O=C(O)C(F)(F)F.[H][C@@]12CCN(Cc3ccoc3)C[C@]1([H])OCCN(Cc1cccc(F)c1)C2=O` | -18.55% | 11.63% |
| `COc1c(C)cc(S(=O)(=O)NCC2CNCCOC2)cc1C` (configuration not stated) | -14.99% | -10.37% |
| `CC(C)Cc1noc(C2CCCCN2C(=O)CCc2cnn(C)c2)n1` (configuration not stated) | 15.79% | -1.143% |
| `N#Cc1ccc(CN(CC(N)=O)C2CCCC2)cc1` | 10.34% | 30.43% |
| `O=C(NCc1cccnc1-n1cncn1)c1ccc2c(c1)CCO2` | -35% | -9.931% |
| `CC(C)(O)CN1CCN(C(=O)COCc2ccccc2Cl)CC1` | 5.216% | 14.29% |
| `Nc1nc2c(c(NCC(c3cccnc3)N3CCOCC3)n1)CCCC2` (configuration not stated) | -1.863% | -1.799% |
| `O=c1[nH]c(-c2ccncc2)ncc1-c1ccnc(NC2CCCCC2)n1` | -37.55% | -105.4% |
| `CCc1nnsc1C(=O)N(C)Cc1nnc2n1CCC2` | -8.566% | -33.16% |
| `CC1CN(C)CCN1C(=O)c1cccn1Cc1cccs1` (configuration not stated) | -6.257% | -6.328% & 0.9752% |
| `Cc1ccccc1CN1CCOC(c2nccc(CN(C)C)n2)C1` (configuration not stated) | 15.15% | 11.07% |
| `CCc1c(C(=O)N2CCC3(CCCN(CCO)C3=O)C2)csc1C` (configuration not stated) | -12.59% | 4.591% & -3.894% |
| `CC(C)c1ncc(-c2cc(C3CCC3)nc(N)c2C#N)cn1` | -4.936% & -4.718% | 12.18% |
| `COc1ccc(CC(=O)Nc2ccc3ncn(C)c(=O)c3c2)cc1` | 16.94% | 22.94% & -3.29% |
| `CCOc1ccc(Cl)c(C(=O)N(C)C)n1` | 21.18% | -27.28% |
| `O=C(c1cn(-c2cccc(Cl)c2F)nn1)N1CCCSCC1` | -12.64% | 13.75% |
| `O=C(NCc1cc[nH]n1)NCC(O)c1ccc(F)cc1F` (configuration not stated) | -24.98% | -27.54% |
| `CN(C(=O)c1ccc2c(c1)nc(N1CC[C@H](O)C1)n2C)C1CCSCC1` | 3.94% | 17.85% |
| `COc1cccc(CN2CCN(C(=O)Nc3nc(C)ns3)CC2=O)c1` | 10.75% | -10.96% |
| `CNC(=O)c1cnc2n1CCN(Cc1cccnc1OC)C2` | -16.99% | -1.935% & -18.49% |
| `CC(C)c1cc(N2CC[C@H](F)C2)n2nccc2n1` | -1.641% | -14.34% |
| `O=C(C1CCC2(CCN(c3nncs3)CC2)C1)N1CCCC1` (configuration not stated) | -9.871% | -4.628% |
| `N[C@@H]1CC[C@@H](Nc2nccc(CCC(F)(F)F)n2)C1` | 5.856% | 3.715% |
| `CCN(CC)CC1CN(Cc2cccc(C#N)c2)Cc2nccn2C1.O=C(O)C(F)(F)F.O=C(O)C(F)(F)F` (configuration not stated) | 10.13% | -7.405% |
| `CCOC(=O)c1ccccc1NC(=O)CN(C)Cc1ccccc1Cl.O=C(O)C(=O)O` | 4.855% | 33.36% |
| `c1csc(N2CCCN(c3nccn4cnnc34)CC2)n1` | -0.9725% | -29.93% |
| `CCc1[nH]nc(NC(=O)c2ccc(Cl)cn2)c1C` | -9.816% | 7.969% |
| `O=C(O)C(F)(F)F.[H][C@@]12CCN(C3CCOCC3)[C@]1([H])CC[C@@H](C(=O)NCc1cccs1)O2` | 7.206% | 21.49% |
| `OCC1(O)CCN(Cc2ccc(-c3cc[nH]n3)s2)CC1` | -9.238% | 13.13% & 1.735% |
| `Cc1nc(C2CCCN2CCOCC2CC2)no1` (configuration not stated) | -3.623% | -7.227% |
| `O=C(O)C(F)(F)F.O=C(O)C(F)(F)F.[H][C@@]12COC[C@]1(CNC(=O)c1ccno1)CN(Cc1cccnc1)C2` | -20.44% | 4.015% |
| `CSc1ccc(OCCN2CCNC(=O)C2C)cc1` (configuration not stated) | 11.27% | 2.123% |
| `O=C(c1ccc(N2CCOCC2)nc1)N1CCCC(n2ccnc2)C1` (configuration not stated) | 2.723% | -3.65% |

The last 4 entries again:

- Cc1nc(C2CCCN2CCOCC2CC2)no1 (configuration not stated) | Mtb cholesterol medium: -3.623%; Mtb glucose medium: -7.227%
- O=C(O)C(F)(F)F.O=C(O)C(F)(F)F.[H][C@@]12COC[C@]1(CNC(=O)c1ccno1)CN(Cc1cccnc1)C2 | Mtb cholesterol medium: -20.44%; Mtb glucose medium: 4.015%
- CSc1ccc(OCCN2CCNC(=O)C2C)cc1 (configuration not stated) | Mtb cholesterol medium: 11.27%; Mtb glucose medium: 2.123%
- O=C(c1ccc(N2CCOCC2)nc1)N1CCCC(n2ccnc2)C1 (configuration not stated) | Mtb cholesterol medium: 2.723%; Mtb glucose medium: -3.65%